These are yes or no findings as the source states them, for the method shown. In cells and extracts the contact can be indirect. These calls come from enrichment with a bait or labelling near it, and not all partners need be listed. For some of these results: No binding means not detected with the bait. Sequences can lack the tags named with a protein.
T1: GFP-LD (Arabidopsis thaliana) (UniProt Q38796)
T1 sequence: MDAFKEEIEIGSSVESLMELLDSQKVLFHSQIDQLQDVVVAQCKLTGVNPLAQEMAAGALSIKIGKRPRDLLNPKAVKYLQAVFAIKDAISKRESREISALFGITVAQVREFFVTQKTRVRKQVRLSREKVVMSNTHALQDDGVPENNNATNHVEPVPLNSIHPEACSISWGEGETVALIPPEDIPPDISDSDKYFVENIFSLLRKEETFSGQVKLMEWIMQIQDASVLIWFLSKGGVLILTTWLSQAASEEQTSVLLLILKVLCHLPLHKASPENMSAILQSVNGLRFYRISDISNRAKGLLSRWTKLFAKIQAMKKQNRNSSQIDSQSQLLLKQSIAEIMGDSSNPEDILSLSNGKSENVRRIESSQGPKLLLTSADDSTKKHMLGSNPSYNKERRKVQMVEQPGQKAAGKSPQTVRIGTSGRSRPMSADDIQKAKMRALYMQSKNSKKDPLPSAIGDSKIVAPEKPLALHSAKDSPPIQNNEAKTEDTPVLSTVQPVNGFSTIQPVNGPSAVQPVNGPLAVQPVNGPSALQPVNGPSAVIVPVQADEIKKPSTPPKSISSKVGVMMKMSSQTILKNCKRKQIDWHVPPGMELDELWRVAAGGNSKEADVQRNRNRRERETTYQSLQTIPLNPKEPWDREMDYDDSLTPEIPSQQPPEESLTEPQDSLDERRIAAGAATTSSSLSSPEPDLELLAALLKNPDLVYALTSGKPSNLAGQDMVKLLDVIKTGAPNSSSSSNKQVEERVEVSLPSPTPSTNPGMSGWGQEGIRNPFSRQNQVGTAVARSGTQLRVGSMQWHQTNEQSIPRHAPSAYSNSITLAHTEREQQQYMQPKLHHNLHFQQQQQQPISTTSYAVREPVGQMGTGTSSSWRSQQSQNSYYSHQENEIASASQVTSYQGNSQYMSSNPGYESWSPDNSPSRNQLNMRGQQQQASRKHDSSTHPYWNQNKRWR

T2: FLD tagged at the carboxyl terminus with FLAG-TAP epitopes (FLD-FLAG-TAP) (Arabidopsis thaliana) (UniProt Q9CAE3)
T2 sequence: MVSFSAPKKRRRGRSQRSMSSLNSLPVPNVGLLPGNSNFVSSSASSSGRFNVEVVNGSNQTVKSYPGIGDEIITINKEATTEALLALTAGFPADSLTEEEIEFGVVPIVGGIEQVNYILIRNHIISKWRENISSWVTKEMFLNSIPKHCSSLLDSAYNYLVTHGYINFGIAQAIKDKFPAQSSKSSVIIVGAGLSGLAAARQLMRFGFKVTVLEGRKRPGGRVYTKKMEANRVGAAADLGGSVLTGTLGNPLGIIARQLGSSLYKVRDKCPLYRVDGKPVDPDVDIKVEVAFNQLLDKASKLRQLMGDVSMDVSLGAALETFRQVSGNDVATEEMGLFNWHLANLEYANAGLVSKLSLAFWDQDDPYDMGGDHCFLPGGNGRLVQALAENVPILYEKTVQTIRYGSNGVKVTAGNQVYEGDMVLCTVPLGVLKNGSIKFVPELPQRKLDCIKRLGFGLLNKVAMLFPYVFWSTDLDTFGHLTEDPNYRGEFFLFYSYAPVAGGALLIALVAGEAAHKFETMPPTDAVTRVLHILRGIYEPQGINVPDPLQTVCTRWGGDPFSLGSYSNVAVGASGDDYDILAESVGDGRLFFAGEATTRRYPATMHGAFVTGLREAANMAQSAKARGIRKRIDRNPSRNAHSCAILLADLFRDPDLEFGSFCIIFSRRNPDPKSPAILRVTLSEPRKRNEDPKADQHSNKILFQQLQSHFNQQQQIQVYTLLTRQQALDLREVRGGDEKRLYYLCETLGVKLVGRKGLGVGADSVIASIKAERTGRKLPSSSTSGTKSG

T3: SDG26-GFP (Arabidopsis thaliana) (UniProt Q84WW6)
T3 sequence: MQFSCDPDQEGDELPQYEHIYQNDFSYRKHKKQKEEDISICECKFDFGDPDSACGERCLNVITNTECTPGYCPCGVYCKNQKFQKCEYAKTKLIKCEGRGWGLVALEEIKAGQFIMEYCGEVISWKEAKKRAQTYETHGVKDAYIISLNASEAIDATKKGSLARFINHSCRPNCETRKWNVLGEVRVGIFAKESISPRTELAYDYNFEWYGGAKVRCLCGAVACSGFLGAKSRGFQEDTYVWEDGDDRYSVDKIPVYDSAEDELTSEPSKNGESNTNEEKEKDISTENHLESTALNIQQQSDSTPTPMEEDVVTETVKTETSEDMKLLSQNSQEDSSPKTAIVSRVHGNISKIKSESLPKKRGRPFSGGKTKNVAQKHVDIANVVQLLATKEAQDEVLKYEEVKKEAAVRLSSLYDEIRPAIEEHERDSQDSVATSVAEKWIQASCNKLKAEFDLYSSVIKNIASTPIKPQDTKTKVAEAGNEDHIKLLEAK


Legend:
[1] = molecular target: T1, GFP-LD (Arabidopsis thaliana); experiment: affinity purification with mass spectrometry; GFP purifications of GFP-LD and SDG26-GFP from transgenic Arabidopsis plants (GFP-Trap Magnetic Agarose), no cross-linking; Col-0 and a line expressing GFP alone as negative controls
[2] = molecular target: T2, FLD tagged at the carboxyl terminus with FLAG-TAP epitopes (FLD-FLAG-TAP) (Arabidopsis thaliana); experiment: affinity purification with mass spectrometry; FLD-FLAG-TAP immunopurified from a transgenic Arabidopsis line, no cross-linking; nontransgenic Col-0 as negative control
[3] = molecular target: T3, SDG26-GFP (Arabidopsis thaliana); experiment: affinity purification with mass spectrometry; GFP purifications of GFP-LD and SDG26-GFP from transgenic Arabidopsis plants (GFP-Trap Magnetic Agarose), no cross-linking; Col-0 and a line expressing GFP alone as negative controls
[4] = molecular target: T3, SDG26-GFP (Arabidopsis thaliana); experiment: affinity purification with mass spectrometry; cross-linked nuclear immunoprecipitation and mass spectrometry (CLNIP-MS) of SDG26 and of LD from transgenic Arabidopsis plants; Col-0 and a line expressing GFP alone as negative controls
[5] = molecular target: T1, GFP-LD (Arabidopsis thaliana); experiment: as above

binding [1]	binding [2]	binding [3]	binding [4]	binding [5]	Molecule
binds	binds				SET DOMAIN GROUP 26 (SDG26) (endogenous) (from UniProt Q84WW6 1-492)
binds		binds	binds		FLD (endogenous) (protein, UniProt Q9CAE3 1-789) MVSFSAPKKRRRGRSQRSMSSLNSLPVPNVGLLPGNSNFVSSSASSSGRFNVEVVNGSNQTVKSYPGIGDEIITINKEATTEALLALTAGFPADSLTEEEIEFGVVPIVGGIEQVNYILIRNHIISKWRENISSWVTKEMFLNSIPKHCSSLLDSAYNYLVTHGYINFGIAQAIKDKFPAQSSKSSVIIVGAGLSGLAAARQLMRFGFKVTVLEGRKRPGGRVYTKKMEANRVGAAADLGGSVLTGTLGNPLGIIARQLGSSLYKVRDKCPLYRVDGKPVDPDVDIKVEVAFNQLLDKASKLRQLMGDVSMDVSLGAALETFRQVSGNDVATEEMGLFNWHLANLEYANAGLVSKLSLAFWDQDDPYDMGGDHCFLPGGNGRLVQALAENVPILYEKTVQTIRYGSNGVKVTAGNQVYEGDMVLCTVPLGVLKNGSIKFVPELPQRKLDCIKRLGFGLLNKVAMLFPYVFWSTDLDTFGHLTEDPNYRGEFFLFYSYAPVAGGALLIALVAGEAAHKFETMPPTDAVTRVLHILRGIYEPQGINVPDPLQTVCTRWGGDPFSLGSYSNVAVGASGDDYDILAESVGDGRLFFAGEATTRRYPATMHGAFVTGLREAANMAQSAKARGIRKRIDRNPSRNAHSCAILLADLFRDPDLEFGSFCIIFSRRNPDPKSPAILRVTLSEPRKRNEDPKADQHSNKILFQQLQSHFNQQQQIQVYTLLTRQQALDLREVRGGDEKRLYYLCETLGVKLVGRKGLGVGADSVIASIKAERTGRKLPSSSTSGTKSG
			binds	binds	RRM-containing protein FPA (protein, UniProt Q8LPQ9 1-901) MALSMKPFRADDSGFQSNNLWVGSLTPETTESDLTELFGRYGDIDRITVYSSRGFAFIYYRHVEEAVAAKEALQGANLNGSQIKIEYARPAKPCKSLWVGGIGPNVSKDDLEEEFSKFGKIEDFRFLRERKTAFIDYYEMDDALQAKSMNGKPMGGSFLRVDFLRSQAPKKEQWAGSYDNRNGNMNHKPQYPHSYEDFKGDVQPSKVLWIGFPPTATQCNDEQILHNAMILFGEIERVKSYPSRNFALVEFRSAEEARQCKEGLQGRLFNNPRIKIMYSNDELPPEQDDTSFYSGMKRSRTDMFNNDPSFVSSPHSTGIPGSMRPLRGTNERSYNGAEYNDVVGKEPNWRRPSANGTGILPSPTGPGILPSPAQGTRRPMRSNPDSWEGYDPAQLVRESKRTRRDGSVDGFTPMGVDERSFGRGSVAARPIRGPPDSDHIWRGMIAKGGTPVCCARCVPMGKGIETKLPEVVNCSARTDLNMLAKHYAVAIGCEIVFFVPDREEDFASYTEFLRYLSSKDRAGVAKLDDGTTLFLVPPSDFLTDVLQVTRQERLYGVVLKLPPPAVPVTASYRQESQSNPLHYMDQARDSPANASHSLYPPRENYIRGAPEHLTAASKPSVSEPLRIPNNAAPQAGVSLTPELLATLASILPATSQPAAPESHQPMSGPSTVVSTAHQSNGLYNGEAPSQAWKRGPQTVHDASNQSFQQYGNQYTPAGQLPPPPSRYPPASNNPNYTSGMVHGNMQYQSQSVNMPQLSPLPNMPHNNYSMYTQGSSNHPVSQPMVQQYQPEASMPNQNYGPIPSYQQANFHGVTTNQAQNLNPSQFQAAMQPPADKANLEPQNQALRLQPMISGDGQGTTDGEVDKNQRYQSTLQFAANLLLQIQQKQQQQSSGTPAGQGP
		no binding (only without cross-linking)	binds	binds	FY (WDR33) (protein, UniProt Q6NLV4 1-647) MYAGGDMHRGSQMPQPPMMRQSSASSTNINPDYHHPSGPFDPNVDSFGAKRMRKHTQRRAVDYTSTVVRYIQARTWQRDSRDRTTLQPTPAAAVDMLPTVAYSDNPSTSFAAKFVHASLNKNRCSINRVLWTPSGRRLITGSQSGEFTLWNGQSFNFEMILQAHDQPIRSMVWSHNENYMVSGDDGGTLKYWQNNMNNVKANKTAHKESIRDLSFCKTDLKFCSCSDDTTVKVWDFTKCVDESSLTGHGWDVKSVDWHPTKSLLVSGGKDQLVKLWDTRSGRELCSLHGHKNIVLSVKWNQNGNWLLTASKDQIIKLYDIRTMKELQSFRGHTKDVTSLAWHPCHEEYFVSGSSDGSICHWIVGHENPQIEIPNAHDNSVWDLAWHPIGYLLCSGSNDHTTKFWCRNRPADNPRDVLMQNQGYNEQGFGRQPDNFQPSEASPIPGAFVPGLTRNEGTIPGIGIAMPFDASSQGDHKQPLPGSMALGAPPLPPGPHPSLLGSGQQQGYQQQQQHQGHPQQMLPMPNMPHHQLPPSSHMPLHPHHLPRPMQMPPHGHMPPPSMPMSHQMPGSMGMQGGMNPQMSQSHFMGAPSGVFQGQPNSGGPQMYPQGRGGFNRPQMIPGYNNPFQQQQQPPLPPGPPPNNNQQHQ

Source: article PMC7334503
